Experimental data as given in article PMC11214632.
Results are given in words; binding and its absence hold for the method and conditions named. Binding seen in cells or lysates may run through a third protein. Some binding calls cover weakened binding; strength is not graded here.

By UniProt entry, the sequences of proteins in these tests, tags left out.
UniProt Q99J95: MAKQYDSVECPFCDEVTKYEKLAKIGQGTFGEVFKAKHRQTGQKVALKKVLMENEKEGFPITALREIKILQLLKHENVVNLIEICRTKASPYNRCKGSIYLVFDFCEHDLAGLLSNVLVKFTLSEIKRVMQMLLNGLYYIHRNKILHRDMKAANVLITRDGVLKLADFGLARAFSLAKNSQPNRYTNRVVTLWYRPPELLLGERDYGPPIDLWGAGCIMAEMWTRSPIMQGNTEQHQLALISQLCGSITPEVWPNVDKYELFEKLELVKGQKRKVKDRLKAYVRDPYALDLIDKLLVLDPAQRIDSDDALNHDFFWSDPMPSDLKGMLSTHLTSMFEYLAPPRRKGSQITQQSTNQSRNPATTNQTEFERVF

T1: Tripartite motif-containing 33 (TRIM33) (mouse (endogenous in C57BL/6 BM Lin–FLT3+ cells and in Mutu DC1940 cells)) (UniProt Q99PP7)
T1 sequence: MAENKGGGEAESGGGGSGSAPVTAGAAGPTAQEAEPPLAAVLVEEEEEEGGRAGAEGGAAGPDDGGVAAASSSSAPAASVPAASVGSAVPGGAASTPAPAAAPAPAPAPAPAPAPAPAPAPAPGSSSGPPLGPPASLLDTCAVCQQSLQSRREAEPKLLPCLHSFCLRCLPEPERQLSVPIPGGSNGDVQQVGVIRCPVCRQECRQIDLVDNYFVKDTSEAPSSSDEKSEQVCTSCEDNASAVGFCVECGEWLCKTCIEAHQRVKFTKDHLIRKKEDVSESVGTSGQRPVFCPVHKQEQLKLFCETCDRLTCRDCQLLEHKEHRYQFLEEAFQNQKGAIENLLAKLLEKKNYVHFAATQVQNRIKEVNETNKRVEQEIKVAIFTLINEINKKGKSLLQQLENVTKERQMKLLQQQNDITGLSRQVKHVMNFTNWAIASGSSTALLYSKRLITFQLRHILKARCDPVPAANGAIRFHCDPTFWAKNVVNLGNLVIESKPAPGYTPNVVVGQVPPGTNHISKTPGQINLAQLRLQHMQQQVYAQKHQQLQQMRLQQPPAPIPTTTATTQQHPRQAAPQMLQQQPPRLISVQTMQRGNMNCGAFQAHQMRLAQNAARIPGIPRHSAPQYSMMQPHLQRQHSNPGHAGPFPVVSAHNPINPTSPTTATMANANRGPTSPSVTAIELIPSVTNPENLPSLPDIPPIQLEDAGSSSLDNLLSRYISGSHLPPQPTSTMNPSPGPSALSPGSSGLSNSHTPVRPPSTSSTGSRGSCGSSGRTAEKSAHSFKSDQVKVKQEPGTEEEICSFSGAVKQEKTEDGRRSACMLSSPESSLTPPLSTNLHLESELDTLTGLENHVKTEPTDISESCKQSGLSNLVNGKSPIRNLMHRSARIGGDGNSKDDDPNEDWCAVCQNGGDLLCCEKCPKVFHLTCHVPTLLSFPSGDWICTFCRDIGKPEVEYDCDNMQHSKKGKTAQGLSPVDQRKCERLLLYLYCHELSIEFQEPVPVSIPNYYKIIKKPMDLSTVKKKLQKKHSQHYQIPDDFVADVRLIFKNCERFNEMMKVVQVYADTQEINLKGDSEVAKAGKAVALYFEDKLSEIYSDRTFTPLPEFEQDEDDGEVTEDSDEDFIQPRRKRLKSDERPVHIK


How the values were obtained:
[1] = target: T1, Tripartite motif-containing 33 (TRIM33) (mouse (endogenous in C57BL/6 BM Lin–FLT3+ cells and in Mutu DC1940 cells)); experiment: co-IP; lysates of Mutu DC1940 cells precipitated with anti-TRIM33 antibody, anti-CDK9 antibody or IgG at 4 °C overnight, Protein A + G magnetic beads, Western blot
[2] = target: cyclin-dependent kinase 9 (CDK9) (mouse (endogenous in C57BL/6 BM Lin–FLT3+ cells and in Mutu DC1940 cells)) (UniProt Q99J95); experiment: as above

Molecule | binding [1] | binding [2]
cyclin-dependent kinase 9 (CDK9) (from UniProt Q99J95 1-372) | binds | –
Tripartite motif-containing 33 (TRIM33) (protein, UniProt Q99PP7 1-1142) MAENKGGGEAESGGGGSGSAPVTAGAAGPTAQEAEPPLAAVLVEEEEEEGGRAGAEGGAAGPDDGGVAAASSSSAPAASVPAASVGSAVPGGAASTPAPAAAPAPAPAPAPAPAPAPAPAPAPGSSSGPPLGPPASLLDTCAVCQQSLQSRREAEPKLLPCLHSFCLRCLPEPERQLSVPIPGGSNGDVQQVGVIRCPVCRQECRQIDLVDNYFVKDTSEAPSSSDEKSEQVCTSCEDNASAVGFCVECGEWLCKTCIEAHQRVKFTKDHLIRKKEDVSESVGTSGQRPVFCPVHKQEQLKLFCETCDRLTCRDCQLLEHKEHRYQFLEEAFQNQKGAIENLLAKLLEKKNYVHFAATQVQNRIKEVNETNKRVEQEIKVAIFTLINEINKKGKSLLQQLENVTKERQMKLLQQQNDITGLSRQVKHVMNFTNWAIASGSSTALLYSKRLITFQLRHILKARCDPVPAANGAIRFHCDPTFWAKNVVNLGNLVIESKPAPGYTPNVVVGQVPPGTNHISKTPGQINLAQLRLQHMQQQVYAQKHQQLQQMRLQQPPAPIPTTTATTQQHPRQAAPQMLQQQPPRLISVQTMQRGNMNCGAFQAHQMRLAQNAARIPGIPRHSAPQYSMMQPHLQRQHSNPGHAGPFPVVSAHNPINPTSPTTATMANANRGPTSPSVTAIELIPSVTNPENLPSLPDIPPIQLEDAGSSSLDNLLSRYISGSHLPPQPTSTMNPSPGPSALSPGSSGLSNSHTPVRPPSTSSTGSRGSCGSSGRTAEKSAHSFKSDQVKVKQEPGTEEEICSFSGAVKQEKTEDGRRSACMLSSPESSLTPPLSTNLHLESELDTLTGLENHVKTEPTDISESCKQSGLSNLVNGKSPIRNLMHRSARIGGDGNSKDDDPNEDWCAVCQNGGDLLCCEKCPKVFHLTCHVPTLLSFPSGDWICTFCRDIGKPEVEYDCDNMQHSKKGKTAQGLSPVDQRKCERLLLYLYCHELSIEFQEPVPVSIPNYYKIIKKPMDLSTVKKKLQKKHSQHYQIPDDFVADVRLIFKNCERFNEMMKVVQVYADTQEINLKGDSEVAKAGKAVALYFEDKLSEIYSDRTFTPLPEFEQDEDDGEVTEDSDEDFIQPRRKRLKSDERPVHIK | – | binds
